36 targets from the supplement of paper PMC12819154, “High-throughput peptide-centric local stability assay extends protein–ligand identification to membrane proteins, tissues and bacteria” (Nature Structural & Molecular Biology, 2025) can be followed below.

Chains of the proteins cited; added tags and fusions are not shown. Lines headed by an entry give the natural chain unless they say otherwise; changes in a name come on top.
UniProt Q8BJU2: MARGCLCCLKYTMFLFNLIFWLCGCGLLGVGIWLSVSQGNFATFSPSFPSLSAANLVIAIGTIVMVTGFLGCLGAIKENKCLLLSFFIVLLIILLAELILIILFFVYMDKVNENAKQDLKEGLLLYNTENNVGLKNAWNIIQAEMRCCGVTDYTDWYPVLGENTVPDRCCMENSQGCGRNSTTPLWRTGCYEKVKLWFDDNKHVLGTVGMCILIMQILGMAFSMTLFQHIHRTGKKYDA
UniProt Q8CG14: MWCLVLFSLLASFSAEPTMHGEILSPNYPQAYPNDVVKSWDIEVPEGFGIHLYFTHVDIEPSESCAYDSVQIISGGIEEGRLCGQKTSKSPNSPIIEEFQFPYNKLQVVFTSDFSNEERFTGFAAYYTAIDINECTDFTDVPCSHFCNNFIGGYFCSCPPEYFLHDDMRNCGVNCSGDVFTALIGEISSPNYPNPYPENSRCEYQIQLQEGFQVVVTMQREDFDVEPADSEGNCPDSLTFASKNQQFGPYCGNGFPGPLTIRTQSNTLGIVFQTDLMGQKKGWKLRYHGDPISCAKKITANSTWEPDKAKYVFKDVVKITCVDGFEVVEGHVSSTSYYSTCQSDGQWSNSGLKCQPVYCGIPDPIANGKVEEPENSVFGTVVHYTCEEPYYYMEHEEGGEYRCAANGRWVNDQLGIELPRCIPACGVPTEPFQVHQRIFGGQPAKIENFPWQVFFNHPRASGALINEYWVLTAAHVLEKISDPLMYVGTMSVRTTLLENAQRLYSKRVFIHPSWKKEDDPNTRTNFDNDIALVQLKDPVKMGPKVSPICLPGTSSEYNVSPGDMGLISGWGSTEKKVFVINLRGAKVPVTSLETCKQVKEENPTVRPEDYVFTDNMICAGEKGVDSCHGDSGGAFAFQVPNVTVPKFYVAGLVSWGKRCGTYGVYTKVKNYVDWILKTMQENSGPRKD
UniProt Q8BZB2: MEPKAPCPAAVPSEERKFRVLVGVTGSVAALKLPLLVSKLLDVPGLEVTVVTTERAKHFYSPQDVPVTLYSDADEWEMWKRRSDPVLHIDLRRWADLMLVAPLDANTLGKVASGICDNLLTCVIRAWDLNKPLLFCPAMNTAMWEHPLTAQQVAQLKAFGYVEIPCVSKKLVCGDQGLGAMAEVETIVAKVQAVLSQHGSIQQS
UniProt Q8CDG3: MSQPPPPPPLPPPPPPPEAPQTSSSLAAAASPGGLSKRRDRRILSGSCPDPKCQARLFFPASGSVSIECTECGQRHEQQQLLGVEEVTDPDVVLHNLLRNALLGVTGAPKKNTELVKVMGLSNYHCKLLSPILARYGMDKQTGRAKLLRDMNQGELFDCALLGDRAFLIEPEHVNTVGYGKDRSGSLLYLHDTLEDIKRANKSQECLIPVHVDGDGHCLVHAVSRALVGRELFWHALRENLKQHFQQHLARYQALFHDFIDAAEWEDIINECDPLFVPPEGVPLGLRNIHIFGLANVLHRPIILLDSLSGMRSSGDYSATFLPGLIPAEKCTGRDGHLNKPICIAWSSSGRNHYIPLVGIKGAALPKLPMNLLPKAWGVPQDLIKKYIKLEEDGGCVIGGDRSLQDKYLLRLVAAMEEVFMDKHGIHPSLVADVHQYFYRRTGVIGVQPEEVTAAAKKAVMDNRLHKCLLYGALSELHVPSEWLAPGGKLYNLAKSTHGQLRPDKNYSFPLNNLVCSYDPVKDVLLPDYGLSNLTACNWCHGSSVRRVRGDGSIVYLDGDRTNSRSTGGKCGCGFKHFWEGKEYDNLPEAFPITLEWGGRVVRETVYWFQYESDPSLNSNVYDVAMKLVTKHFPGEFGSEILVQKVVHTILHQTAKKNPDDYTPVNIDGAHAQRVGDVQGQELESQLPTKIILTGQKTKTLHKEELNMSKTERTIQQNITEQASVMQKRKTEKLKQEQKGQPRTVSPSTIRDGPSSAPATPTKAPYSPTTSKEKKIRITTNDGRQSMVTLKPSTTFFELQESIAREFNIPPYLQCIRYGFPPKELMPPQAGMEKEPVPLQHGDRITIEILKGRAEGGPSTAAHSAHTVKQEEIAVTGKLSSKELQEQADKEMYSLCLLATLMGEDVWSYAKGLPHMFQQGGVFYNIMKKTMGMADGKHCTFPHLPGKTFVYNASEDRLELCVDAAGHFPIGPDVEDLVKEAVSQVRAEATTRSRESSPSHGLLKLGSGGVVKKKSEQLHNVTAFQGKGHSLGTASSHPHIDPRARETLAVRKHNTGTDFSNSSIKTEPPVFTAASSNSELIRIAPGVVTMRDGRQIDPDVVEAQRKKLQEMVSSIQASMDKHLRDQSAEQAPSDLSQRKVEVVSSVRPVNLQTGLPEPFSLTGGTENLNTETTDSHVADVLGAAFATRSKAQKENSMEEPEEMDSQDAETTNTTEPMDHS
UniProt Q8C6B9: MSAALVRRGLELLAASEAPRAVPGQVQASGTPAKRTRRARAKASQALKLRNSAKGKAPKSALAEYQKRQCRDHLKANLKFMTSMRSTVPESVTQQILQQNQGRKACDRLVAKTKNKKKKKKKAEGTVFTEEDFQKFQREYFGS
UniProt Q8BJW6: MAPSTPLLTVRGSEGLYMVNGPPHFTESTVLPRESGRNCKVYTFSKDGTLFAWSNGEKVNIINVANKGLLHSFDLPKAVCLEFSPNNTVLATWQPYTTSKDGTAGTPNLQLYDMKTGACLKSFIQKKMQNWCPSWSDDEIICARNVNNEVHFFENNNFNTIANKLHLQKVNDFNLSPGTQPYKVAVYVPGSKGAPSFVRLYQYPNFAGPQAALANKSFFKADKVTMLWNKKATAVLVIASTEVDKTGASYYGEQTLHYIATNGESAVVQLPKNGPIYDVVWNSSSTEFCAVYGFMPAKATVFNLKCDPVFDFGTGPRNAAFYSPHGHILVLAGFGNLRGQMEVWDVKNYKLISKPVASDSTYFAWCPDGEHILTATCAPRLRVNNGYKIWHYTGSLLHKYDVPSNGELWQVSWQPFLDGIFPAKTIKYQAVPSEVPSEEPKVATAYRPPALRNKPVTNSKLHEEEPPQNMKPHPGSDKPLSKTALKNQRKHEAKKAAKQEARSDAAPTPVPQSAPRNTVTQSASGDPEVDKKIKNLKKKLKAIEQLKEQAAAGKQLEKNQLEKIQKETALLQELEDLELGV
UniProt Q8BWP5: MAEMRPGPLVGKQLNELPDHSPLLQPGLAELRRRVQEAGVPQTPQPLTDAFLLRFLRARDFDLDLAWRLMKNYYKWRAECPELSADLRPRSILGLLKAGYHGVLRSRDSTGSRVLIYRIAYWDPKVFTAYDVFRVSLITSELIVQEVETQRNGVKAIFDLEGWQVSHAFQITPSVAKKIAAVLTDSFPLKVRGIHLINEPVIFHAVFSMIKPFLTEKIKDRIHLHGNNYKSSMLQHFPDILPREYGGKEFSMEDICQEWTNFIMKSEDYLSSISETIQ
UniProt Q8C0E2, whole entry: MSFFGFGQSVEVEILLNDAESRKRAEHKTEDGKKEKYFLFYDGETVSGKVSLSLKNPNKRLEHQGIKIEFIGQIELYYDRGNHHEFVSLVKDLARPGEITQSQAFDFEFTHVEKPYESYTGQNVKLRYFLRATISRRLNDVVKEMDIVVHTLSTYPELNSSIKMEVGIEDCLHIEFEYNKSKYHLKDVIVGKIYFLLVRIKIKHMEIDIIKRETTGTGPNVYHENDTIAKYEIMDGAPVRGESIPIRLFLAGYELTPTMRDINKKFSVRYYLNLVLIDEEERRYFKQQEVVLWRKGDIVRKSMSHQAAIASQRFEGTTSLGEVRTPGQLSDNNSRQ
UniProt Q8BKC5: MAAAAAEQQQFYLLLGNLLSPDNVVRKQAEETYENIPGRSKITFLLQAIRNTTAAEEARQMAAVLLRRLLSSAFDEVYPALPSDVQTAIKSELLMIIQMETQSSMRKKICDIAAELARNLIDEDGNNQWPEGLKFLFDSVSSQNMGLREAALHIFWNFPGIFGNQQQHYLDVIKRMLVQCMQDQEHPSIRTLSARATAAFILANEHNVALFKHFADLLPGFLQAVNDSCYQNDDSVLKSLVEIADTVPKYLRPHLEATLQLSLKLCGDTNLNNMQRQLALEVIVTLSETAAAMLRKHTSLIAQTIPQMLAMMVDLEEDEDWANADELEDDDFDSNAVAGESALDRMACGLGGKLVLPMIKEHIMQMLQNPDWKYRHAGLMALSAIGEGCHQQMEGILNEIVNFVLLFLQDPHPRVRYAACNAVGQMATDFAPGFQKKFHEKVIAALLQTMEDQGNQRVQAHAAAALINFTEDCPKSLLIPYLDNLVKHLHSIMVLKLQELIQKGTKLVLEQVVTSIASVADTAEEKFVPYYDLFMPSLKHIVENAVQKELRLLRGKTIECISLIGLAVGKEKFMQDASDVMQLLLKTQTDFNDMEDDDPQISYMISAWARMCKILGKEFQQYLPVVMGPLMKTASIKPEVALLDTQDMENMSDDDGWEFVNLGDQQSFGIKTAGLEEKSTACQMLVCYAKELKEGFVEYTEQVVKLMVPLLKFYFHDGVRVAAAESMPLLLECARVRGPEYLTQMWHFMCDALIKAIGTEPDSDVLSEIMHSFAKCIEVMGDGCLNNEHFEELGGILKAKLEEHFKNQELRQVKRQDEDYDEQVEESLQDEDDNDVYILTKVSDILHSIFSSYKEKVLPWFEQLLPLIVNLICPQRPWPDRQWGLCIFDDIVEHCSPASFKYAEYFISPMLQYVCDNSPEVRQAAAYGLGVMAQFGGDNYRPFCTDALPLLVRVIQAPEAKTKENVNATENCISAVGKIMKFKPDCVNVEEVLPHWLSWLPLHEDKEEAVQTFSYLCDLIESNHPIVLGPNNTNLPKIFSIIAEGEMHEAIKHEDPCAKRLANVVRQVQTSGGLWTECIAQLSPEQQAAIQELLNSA
UniProt Q8BIW1: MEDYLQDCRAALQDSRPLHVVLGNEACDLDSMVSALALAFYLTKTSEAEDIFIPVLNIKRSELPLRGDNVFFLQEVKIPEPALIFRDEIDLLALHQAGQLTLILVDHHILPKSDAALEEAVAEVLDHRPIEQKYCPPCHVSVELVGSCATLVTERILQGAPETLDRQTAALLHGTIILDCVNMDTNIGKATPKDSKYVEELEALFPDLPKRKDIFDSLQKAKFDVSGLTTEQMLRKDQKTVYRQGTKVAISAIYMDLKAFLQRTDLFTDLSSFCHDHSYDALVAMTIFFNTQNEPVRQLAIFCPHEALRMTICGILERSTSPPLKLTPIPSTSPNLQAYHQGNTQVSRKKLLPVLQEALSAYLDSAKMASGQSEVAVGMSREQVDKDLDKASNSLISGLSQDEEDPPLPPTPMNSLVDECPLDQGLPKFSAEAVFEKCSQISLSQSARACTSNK
UniProt Q8BL97: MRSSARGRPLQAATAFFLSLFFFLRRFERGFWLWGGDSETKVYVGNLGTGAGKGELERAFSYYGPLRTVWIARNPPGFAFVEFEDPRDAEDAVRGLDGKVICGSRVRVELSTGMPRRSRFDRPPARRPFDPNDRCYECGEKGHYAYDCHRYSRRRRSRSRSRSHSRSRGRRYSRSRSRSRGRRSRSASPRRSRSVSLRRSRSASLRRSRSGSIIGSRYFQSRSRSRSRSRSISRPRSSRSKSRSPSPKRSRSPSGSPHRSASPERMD
UniProt Q8BYW9: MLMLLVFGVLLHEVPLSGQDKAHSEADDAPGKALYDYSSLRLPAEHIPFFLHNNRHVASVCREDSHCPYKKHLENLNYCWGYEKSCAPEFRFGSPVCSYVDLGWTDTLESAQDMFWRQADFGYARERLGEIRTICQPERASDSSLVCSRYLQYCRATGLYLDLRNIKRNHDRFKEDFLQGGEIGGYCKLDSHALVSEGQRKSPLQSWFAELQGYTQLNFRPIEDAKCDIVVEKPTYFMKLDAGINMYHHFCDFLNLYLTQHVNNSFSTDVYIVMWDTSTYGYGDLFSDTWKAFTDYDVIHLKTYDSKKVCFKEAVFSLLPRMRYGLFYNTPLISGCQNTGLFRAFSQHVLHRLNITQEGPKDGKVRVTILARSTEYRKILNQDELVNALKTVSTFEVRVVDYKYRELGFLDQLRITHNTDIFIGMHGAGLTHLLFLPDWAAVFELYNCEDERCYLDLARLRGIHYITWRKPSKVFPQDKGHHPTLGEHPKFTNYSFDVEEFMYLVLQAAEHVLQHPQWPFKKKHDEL
UniProt Q8BHJ5: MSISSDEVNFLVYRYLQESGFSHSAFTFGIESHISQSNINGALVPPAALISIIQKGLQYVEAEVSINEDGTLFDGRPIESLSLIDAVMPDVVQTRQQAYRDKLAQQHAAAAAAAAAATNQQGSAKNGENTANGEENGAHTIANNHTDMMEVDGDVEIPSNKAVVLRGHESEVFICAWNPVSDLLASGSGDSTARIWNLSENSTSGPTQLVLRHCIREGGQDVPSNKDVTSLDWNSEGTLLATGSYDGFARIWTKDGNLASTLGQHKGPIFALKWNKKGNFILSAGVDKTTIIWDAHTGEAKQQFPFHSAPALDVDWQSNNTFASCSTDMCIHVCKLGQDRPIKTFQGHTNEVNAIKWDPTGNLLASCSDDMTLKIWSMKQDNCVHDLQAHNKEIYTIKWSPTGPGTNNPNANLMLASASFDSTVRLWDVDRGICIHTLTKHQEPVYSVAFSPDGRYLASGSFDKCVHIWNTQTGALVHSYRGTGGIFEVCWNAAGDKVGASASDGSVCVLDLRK

The other results are listed elsewhere or left out. Most values lie at the level of the controls, where differences are scatter.

Compound in the test: CN[C@@H]1C[C@H]2O[C@@](C)([C@@H]1OC)n1c3ccccc3c3c4c(c5c6ccccc6n2c5c31)C(=O)NC4 [staurosporine]
The test is described as follows: log2 fold change of pooled soluble protein (PISA), ligand vs vehicle (log2 ratio); higher = more thermally stabilized. As to conditions: ligand concentration: 20 uM; assay format: PISA pool 52.9/55.5/58.6 C.
Take UniProt Q8BJU2: the “log2 fold change of pooled soluble protein” value (shortened to “log2 fold change”) stood at 0.313.

With UniProt Q8CG14, the “log2 fold change” value was -0.0472.

For UniProt Q8BMK4, the “log2 fold change” value was -0.0493.

With UniProt Q8BWT1, the “log2 fold change” value was 0.0436.

With UniProt Q8BWU5, the “log2 fold change” value came out at 0.103.

As to UniProt Q8BJ48, the “log2 fold change” value stood at 0.0232.

Regarding UniProt Q8BVE3, the “log2 fold change” value came out at 0.125.

Consider UniProt Q8CC86, for which the “log2 fold change” value was -0.0233.

Regarding UniProt Q8BZB2, the “log2 fold change” value was -0.325.

Take UniProt Q8BJ64: the “log2 fold change” value is -0.135.

As to UniProt Q8CAK1, the “log2 fold change” value is -0.143.

UniProt Q8CDG3: the “log2 fold change” value was -0.0353.

As for UniProt Q8BHG9, the “log2 fold change” value was -0.159.

Take UniProt Q8C6B9: the “log2 fold change” value was -0.0163.

As for UniProt Q8BWW9, the “log2 fold change” value is -0.00685.

Regarding UniProt Q8BH50, the “log2 fold change” value is -0.149.

In the case of UniProt Q8BWU8, the “log2 fold change” value was -0.183.

Take UniProt Q8BHE8: the “log2 fold change” value is -0.13.

Turning to UniProt Q8CCN5, the “log2 fold change” value was -0.0671.

On to UniProt Q8BJW6, for which the “log2 fold change” value worked out at 0.00974.

As to UniProt Q8BK64, the “log2 fold change” value was -0.000719.

As to UniProt Q8BWP5, the “log2 fold change” value turned out to be 0.0722.

In the case of UniProt Q8C0E2, the “log2 fold change” value stood at 0.0518.

Regarding UniProt Q8BP40, the “log2 fold change” value is 0.00308.

Regarding UniProt Q8BKC5, the “log2 fold change” value amounted to 0.0255.

As to UniProt Q8C5P7, the “log2 fold change” value is -0.0424.

As for UniProt Q8C0Q2, the “log2 fold change” value stood at 0.0774.

Regarding UniProt Q8BIW1, the “log2 fold change” value is -0.235.

On to UniProt Q8BL97, for which the “log2 fold change” value was -0.126.

As for UniProt Q8BYW9, the “log2 fold change” value came to 0.153.

With UniProt Q8BVV7, the “log2 fold change” value turned out to be 0.718.

With UniProt Q8BTZ7, the “log2 fold change” value is -0.096.

Consider UniProt Q8BH31, for which the “log2 fold change” value was 0.0566.

In the case of UniProt Q8BHJ5, the “log2 fold change” value is -0.0524.

As to UniProt Q8BVW3, the “log2 fold change” value was -0.066.

For the target UniProt Q8CDJ8, the “log2 fold change” value was determined as 0.0788.
